Chains of the proteins cited; added tags and fusions are not shown.
UniProt Q00341: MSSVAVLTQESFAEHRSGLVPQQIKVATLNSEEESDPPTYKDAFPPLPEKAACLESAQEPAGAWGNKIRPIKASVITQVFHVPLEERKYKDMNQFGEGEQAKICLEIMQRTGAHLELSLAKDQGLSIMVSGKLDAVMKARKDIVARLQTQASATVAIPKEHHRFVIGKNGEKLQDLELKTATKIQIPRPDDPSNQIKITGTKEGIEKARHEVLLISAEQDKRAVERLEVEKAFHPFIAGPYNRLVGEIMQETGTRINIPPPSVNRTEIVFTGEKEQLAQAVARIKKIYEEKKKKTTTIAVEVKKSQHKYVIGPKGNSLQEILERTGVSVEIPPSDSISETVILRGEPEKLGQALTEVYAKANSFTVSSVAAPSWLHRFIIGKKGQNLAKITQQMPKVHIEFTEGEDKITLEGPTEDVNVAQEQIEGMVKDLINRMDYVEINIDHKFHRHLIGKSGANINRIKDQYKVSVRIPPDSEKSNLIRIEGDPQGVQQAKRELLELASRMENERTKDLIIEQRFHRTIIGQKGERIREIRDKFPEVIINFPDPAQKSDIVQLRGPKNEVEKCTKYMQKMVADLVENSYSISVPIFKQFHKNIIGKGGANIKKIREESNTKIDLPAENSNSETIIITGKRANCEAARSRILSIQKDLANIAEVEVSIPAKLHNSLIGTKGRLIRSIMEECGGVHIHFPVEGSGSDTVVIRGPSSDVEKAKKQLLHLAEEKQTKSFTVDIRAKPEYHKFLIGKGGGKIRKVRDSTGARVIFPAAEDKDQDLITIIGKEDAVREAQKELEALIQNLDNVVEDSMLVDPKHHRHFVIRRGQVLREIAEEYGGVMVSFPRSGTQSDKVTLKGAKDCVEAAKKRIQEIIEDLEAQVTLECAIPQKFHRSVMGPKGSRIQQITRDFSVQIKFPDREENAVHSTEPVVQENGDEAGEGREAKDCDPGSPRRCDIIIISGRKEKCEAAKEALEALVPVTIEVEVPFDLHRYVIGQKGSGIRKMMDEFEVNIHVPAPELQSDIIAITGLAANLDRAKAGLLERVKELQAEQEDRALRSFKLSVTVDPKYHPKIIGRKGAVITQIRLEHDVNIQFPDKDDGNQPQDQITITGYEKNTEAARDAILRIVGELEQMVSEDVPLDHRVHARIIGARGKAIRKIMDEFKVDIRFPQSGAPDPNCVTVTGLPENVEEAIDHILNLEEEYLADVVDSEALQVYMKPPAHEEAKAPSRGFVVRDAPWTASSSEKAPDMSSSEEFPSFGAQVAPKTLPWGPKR
UniProt Q04637: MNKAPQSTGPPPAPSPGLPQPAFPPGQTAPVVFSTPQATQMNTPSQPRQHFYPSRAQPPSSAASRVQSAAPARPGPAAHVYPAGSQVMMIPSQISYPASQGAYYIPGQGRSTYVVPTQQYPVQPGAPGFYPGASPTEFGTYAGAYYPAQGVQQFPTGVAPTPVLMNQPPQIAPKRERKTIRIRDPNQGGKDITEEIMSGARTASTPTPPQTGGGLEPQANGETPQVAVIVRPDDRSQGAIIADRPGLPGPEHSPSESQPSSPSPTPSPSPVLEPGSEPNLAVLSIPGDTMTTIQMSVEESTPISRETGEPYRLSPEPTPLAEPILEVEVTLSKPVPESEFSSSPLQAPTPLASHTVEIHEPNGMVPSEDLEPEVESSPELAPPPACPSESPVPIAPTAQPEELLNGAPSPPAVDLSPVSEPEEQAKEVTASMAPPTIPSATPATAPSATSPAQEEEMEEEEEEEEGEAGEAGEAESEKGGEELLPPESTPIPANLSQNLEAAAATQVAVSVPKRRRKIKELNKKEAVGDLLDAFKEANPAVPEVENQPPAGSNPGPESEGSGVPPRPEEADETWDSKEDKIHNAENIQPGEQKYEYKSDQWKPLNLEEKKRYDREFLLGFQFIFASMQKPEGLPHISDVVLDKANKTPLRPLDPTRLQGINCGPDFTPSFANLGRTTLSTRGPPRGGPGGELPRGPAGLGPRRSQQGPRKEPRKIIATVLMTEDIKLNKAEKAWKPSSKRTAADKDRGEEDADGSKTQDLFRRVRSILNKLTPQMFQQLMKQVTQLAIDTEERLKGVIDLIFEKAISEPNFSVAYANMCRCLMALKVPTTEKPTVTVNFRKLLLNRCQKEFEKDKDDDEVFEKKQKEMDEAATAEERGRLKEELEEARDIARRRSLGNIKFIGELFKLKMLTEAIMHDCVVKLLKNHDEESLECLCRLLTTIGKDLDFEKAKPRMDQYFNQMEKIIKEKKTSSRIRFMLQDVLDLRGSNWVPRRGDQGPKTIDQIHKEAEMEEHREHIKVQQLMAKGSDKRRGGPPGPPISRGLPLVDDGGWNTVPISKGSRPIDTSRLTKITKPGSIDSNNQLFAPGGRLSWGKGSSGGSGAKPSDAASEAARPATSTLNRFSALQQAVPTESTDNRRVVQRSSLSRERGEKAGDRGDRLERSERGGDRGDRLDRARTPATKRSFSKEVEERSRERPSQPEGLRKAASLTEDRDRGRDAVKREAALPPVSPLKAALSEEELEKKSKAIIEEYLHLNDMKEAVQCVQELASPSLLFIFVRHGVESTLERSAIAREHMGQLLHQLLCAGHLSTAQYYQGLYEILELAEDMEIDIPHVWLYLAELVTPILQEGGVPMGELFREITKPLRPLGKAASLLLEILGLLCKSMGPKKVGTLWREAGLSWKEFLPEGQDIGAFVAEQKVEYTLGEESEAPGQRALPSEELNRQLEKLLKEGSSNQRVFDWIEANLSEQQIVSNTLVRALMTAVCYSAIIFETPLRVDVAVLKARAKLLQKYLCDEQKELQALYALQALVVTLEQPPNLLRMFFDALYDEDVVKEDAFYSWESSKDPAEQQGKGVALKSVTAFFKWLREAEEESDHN
UniProt O60573: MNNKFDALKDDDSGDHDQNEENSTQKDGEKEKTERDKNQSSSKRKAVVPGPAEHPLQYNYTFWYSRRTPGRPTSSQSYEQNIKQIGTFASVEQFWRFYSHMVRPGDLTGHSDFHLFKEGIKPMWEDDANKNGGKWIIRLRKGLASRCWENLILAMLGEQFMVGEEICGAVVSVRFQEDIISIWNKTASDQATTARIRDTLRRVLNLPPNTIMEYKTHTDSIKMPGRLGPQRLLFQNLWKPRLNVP
UniProt P50990: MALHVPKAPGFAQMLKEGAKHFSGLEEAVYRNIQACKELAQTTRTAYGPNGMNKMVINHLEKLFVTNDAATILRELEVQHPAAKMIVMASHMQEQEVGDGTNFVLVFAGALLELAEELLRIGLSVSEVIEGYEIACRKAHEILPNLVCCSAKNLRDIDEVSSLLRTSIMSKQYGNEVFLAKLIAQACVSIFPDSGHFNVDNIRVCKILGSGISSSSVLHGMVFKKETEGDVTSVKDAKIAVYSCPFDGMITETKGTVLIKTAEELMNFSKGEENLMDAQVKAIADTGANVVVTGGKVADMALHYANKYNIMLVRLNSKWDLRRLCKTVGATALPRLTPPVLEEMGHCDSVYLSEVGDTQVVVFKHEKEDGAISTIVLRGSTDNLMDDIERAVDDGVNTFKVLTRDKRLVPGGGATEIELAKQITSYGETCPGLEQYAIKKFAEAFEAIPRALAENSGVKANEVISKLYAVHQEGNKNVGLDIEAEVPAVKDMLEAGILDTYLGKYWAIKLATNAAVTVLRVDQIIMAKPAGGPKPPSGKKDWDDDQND
UniProt P55010: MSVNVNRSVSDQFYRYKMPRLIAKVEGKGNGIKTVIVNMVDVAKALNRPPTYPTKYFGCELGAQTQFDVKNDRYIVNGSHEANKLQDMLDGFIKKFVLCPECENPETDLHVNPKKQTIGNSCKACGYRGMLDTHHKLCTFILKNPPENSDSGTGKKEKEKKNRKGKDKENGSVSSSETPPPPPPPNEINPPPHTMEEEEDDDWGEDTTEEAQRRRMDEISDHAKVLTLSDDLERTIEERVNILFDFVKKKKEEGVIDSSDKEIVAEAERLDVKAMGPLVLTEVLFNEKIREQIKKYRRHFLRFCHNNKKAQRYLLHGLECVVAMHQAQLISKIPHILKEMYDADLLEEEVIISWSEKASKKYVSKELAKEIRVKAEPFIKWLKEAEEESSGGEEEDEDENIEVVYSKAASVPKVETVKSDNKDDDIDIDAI
UniProt P0DMV8: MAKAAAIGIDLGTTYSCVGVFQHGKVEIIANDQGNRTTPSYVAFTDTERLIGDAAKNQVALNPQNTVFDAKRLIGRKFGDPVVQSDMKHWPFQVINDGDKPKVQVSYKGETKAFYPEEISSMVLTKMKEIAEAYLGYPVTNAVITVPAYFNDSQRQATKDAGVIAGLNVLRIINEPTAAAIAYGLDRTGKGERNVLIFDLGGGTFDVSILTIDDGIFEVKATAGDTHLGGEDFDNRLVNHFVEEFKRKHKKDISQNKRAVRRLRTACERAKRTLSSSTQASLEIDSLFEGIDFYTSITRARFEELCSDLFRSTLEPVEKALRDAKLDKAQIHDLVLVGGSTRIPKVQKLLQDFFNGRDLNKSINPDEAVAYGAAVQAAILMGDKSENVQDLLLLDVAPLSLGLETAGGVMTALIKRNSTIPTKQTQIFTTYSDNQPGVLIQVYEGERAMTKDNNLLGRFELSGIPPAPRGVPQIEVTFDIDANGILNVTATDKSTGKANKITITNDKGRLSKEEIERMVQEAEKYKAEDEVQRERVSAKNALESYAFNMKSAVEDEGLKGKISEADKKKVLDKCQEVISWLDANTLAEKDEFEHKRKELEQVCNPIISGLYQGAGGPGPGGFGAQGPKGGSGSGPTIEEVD
UniProt P11142: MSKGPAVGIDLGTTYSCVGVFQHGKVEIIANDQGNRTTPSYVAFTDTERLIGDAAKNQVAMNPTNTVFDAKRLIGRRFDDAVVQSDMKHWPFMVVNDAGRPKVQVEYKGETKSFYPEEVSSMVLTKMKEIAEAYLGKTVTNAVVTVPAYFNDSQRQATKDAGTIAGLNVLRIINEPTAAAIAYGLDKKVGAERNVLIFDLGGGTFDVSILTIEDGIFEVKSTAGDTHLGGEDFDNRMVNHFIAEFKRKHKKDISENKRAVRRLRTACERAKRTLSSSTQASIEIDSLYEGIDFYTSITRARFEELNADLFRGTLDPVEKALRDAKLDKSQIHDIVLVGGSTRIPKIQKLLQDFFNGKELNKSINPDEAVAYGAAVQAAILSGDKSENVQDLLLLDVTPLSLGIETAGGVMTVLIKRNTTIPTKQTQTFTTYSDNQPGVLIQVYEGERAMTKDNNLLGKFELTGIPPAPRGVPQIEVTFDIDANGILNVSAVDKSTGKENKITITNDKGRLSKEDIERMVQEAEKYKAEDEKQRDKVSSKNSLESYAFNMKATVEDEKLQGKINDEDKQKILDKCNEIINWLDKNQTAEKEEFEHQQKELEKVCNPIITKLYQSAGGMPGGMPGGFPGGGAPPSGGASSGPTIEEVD

In PMC9117268, “HDLBP binds ER-targeted mRNAs by multivalent interactions to promote protein synthesis of transmembrane and secreted proteins”:

B1: SRP68 (protein, UniProt Q9UHB9 1-627)
chain: MAAEKQVPGGGGGGGSGGGGGSGGGGSGGGRGAGGEENKENERPSAGSKANKEFGDSLSLEILQIIKESQQQHGLRHGDFQRYRGYCSRRQRRLRKTLNFKMGNRHKFTGKKVTEELLTDNRYLLLVLMDAERAWSYAMQLKQEANTEPRKRFHLLSRLRKAVKHAEELERLCESNRVDAKTKLEAQAYTAYLSGMLRFEHQEWKAAIEAFNKCKTIYEKLASAFTEEQAVLYNQRVEEISPNIRYCAYNIGDQSAINELMQMRLRSGGTEGLLAEKLEALITQTRAKQAATMSEVEWRGRTVPVKIDKVRIFLLGLADNEAAIVQAESEETKERLFESMLSECRDAIQVVREELKPDQKQRDYILEGEPGKVSNLQYLHSYLTYIKLSTAIKRNENMAKGLQRALLQQQPEDDSKRSPRPQDLIRLYDIILQNLVELLQLPGLEEDKAFQKEIGLKTLVFKAYRCFFIAQSYVLVKKWSEALVLYDRVLKYANEVNSDAGAFKNSLKDLPDVQELITQVRSEKCSLQAAAILDANDAHQTETSSSQVKDNKPLVERFETFCLDPSLVTKQANLVHFPPGFQPIPCKPLFFDLALNHVAFPPLEDKLEQKTKSGLTGYIKGIFGFRS

Biological target: BirA*-FLAG-HDLBP (human) (UniProt Q00341)
Assay: proximity labelling; BioID in stable HEK293 cells expressing BirA*-FLAG-HDLBP; with or without 1 µg/ml doxycycline for 24 h, 250 µM biotin for 3.5 h; RIPA lysis, benzonase, streptavidin sepharose, LC-MS/MS; enrichment LFQ(Dox) vs. LFQ(noDox)

binding, binds:
EIF4G1 (from UniProt Q04637 1-1599)
EIF4E2 (from UniProt O60573 1-245)
CCT8 (from UniProt P50990 1-548)
EIF5 (from UniProt P55010 1-431)
HSPA1A (from UniProt P0DMV8 1-641)
HSPA8 (from UniProt P11142 1-646)
B1

These are yes or no findings as the source states them, for the method shown. Binding seen in cells or lysates may run through a third protein. These calls come from enrichment with a bait or labelling near it, and not all partners need be listed.
